The assay addresses T1, carbonic anhydrase 8 (CA8) (UniProt P28651).
T1 sequence: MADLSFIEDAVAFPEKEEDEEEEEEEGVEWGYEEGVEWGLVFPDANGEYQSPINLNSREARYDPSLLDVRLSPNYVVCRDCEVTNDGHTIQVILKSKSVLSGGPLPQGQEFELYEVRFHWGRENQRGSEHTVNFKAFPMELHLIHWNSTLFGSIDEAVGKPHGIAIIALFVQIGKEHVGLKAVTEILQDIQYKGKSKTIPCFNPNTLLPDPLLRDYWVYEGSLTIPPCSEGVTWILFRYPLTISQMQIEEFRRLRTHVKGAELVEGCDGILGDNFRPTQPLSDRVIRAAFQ
Description: affinity purification with mass spectrometry; immunoprecipitation with the CA8 antibody in nonionic detergent NP-40 buffer; precipitate resolved on SDS-PAGE, silver staining, specific bands analysed by mass spectrometry.

No constants are given. Whether binding was seen depends on the method and setting. In cells and extracts the contact can be indirect. A yes stands for co-enrichment or nearness to the bait. Other partners may have been found.

Take tropomyosin 3 (TPM3): the binding entry was “binds”.
